# Assay results from PubChem BioAssay AID1259415 (National Center for Advancing Translational Sciences (NCATS), 2018).
# Out of some 410,000 compounds screened, about 18,000 (4.4%) were called active. Inconclusive results, whose numbers are uncertain, are shown with a selection of clear calls. Cut-off read from the data, not from the text of the source: active = activity change below about -60%; inconclusive = no clear call, values can overlap the other calls; inactive = above about -39%.
# Assay: qHTS Assay for inhibitors of the human cytomegalovirus (HCMV)
# Details: HFF cells, HCMV-luciferase reporter, 72 h; at 57.5 µM; hits give low values
# Summary of the method: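 Screen run at 2 compound doses on HFFs infected with reporter HCMV, MOI 1 PFU/cell. Luciferase activity from cell lysates at 72 h post infection gave inhibition relative to buffer-only and Salinomycin wells.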
# % is set by controls: 0 for no effect and ±100 for the full control effect.
row,SMILES,"activity change, negative = inhibition"
1,O=C(Cn1cc(Cl)c([N+](=O)[O-])n1)NCCC1=CCCCC1,inconclusive: -48.5%
2,c1ccc2c(c1)c1c(c3ccccc32)CN2CCCC2C1 (configuration not stated),inconclusive: -49.1%
3,CC1(c2ccc3ccccc3c2)NC(=O)N(CC(=O)NCC(C)(C)N2CCOCC2)C1=O (configuration not stated),inactive: 15.6%
4,Cc1cc(Nc2cccc([N+](=O)[O-])c2)n2c(nc3ccccc32)c1C#N,active: -100%
5,COc1ccccc1CNC(=O)CCn1c(=O)c2ccccc2n(CC(=O)Nc2cccc(Cl)c2)c1=O,inactive: -39.6%
6,Cc1c(NC(=O)c2cc(-c3ccc(Cl)c(Cl)c3)on2)c(=O)n(-c2ccccc2)n1C,inconclusive: -52.5%
7,CCOC(=O)N1CCc2c(sc(NC(=O)c3ccc(S(=O)(=O)N4CCCC4)cc3)c2C#N)C1,inactive: -2.58%
8,Cc1nc2ccccc2n1-c1nc(-c2ccco2)cc(C(F)(F)F)n1,active: -104%
9,Cc1cccc(NS(=O)(=O)c2ccc3oc(=O)ccc3c2)c1C,inconclusive: -42.8%
10,CCOC(=O)c1cc(-c2ccccc2)n(-c2cccc(C(=O)Nc3ccc(F)c(F)c3)c2)c1C,inconclusive: 0%
11,COCCn1c(C)cc(C(=O)CSc2cc(C)c3ccccc3n2)c1C,inconclusive: -45.9%
12,CC(C)(CN1CCN(Cc2ccccc2)CC1)NS(=O)(=O)c1ccc(Cl)cc1,inconclusive: -47.2%
13,S=c1nc[nH]c2c1sc1nc(-c3ccccc3)c3c(c12)CCCC3,inconclusive: -48%
14,CC(=O)Nc1ccc2c(c1)C(=O)N(c1cccc(C)c1)C2=O,inconclusive: -42.8%
15,CCOc1cc2c(cc1OCC)-n1cccc1C(c1ccc(C)cc1C)NC2 (configuration not stated),inconclusive: -56.1%
16,C/C(=N\NC(=S)NCC(C)(C)C)c1cc(F)cc(F)c1O,inconclusive: -52.2%
17,O=C(Nc1c(F)cccc1F)c1cnc(N2CCN(c3ccccn3)CC2)c2ccccc12,inconclusive: -50.8%
18,Cn1c(SCC(=O)Nc2cc(C(C)(C)C)nn2-c2ccccc2)nc2ccccc21,inconclusive: -44.7%
19,O=S(=O)(c1cccc2ccccc12)N1CCCCC1,inconclusive: -46%
20,Cc1cc(C)cc(C(=O)Nc2ccc(-c3nc4ncccc4o3)cc2)c1,inconclusive: -49.8%
21,CCN(CC)CCNc1ccc(C)c2sc3ccc(O)cc3c(=O)c12,active: -96.9%
22,C=CCN1C(=O)/C(=C2/Sc3ccc(OC)cc3N2C)SC1=Nc1cccc(O)c1,inconclusive: -41.2%

row,SMILES,"activity change, negative = inhibition"
1,CC(C)(C)n1nnnc1C(CCc1ccccc1)N1CCN(C/C=C/c2ccccc2)CC1 (configuration not stated),inconclusive: -48.9%
2,O=C1NCCCC1C(=O)N/N=C/c1ccccc1O (configuration not stated),inconclusive: -56.2%
3,Cc1ccc(NNc2c(C)nc3ccccc3nc2=O)cc1,active: -67%
4,COC(=O)CCC(=O)OC1(C)C(=O)C2=CN(C(CO)CO)C(c3ccc(OC)cc3)=CC2=C(Br)C1=O (configuration not stated),inactive: 13%
5,CC(=O)Nc1cccc(NC(=O)Nc2cccc(Cl)c2C)c1,active: -71%
6,Cc1ccc(O)c(C(CC(=O)NCC2(c3ccccc3)CCCC2)c2ccccc2)c1 (configuration not stated),active: -98.5%
7,CCC(=O)c1cc(Br)ccc1OCC(=O)N1CCN(S(=O)(=O)c2ccccc2)CC1,inconclusive: -51%
8,CCN(CC)c1ccc(NC(=O)c2ccco2)c(C)c1,inactive: -5.42%
9,CC(=O)Nc1ccc(S(=O)(=O)N(Cc2ccccc2)C(C)C)cc1,inconclusive: -54.4%
10,COc1cc(NC(=O)C2CC(c3ccc(Cl)cc3)=NO2)cc(OC)c1OC (configuration not stated),inconclusive: -51.2%
11,CC(=O)N1CC(C)Sc2ccc(S(=O)(=O)NCCc3cccc(C)c3)cc21 (configuration not stated),inconclusive: -49.8%
12,O=c1c2ccccc2[nH]c2ccc(F)cc12,inconclusive: -48.7%
13,O=C(Nc1ccc(Cl)cc1)Nc1nnc(CSCc2ccc(Cl)cc2)s1,active: -67.4%
14,O=C(O)c1cccc(COc2ccccc2Cl)c1,inconclusive: -43.1%
15,COC(=O)c1c(C)oc2ccc(N(C(=O)c3ccncc3)S(=O)(=O)c3ccc(C)cc3C)cc12,active: -92.4%
16,COc1ccc(Cn2c(O)c(/C=N/NC(=O)c3ccncc3)c(=O)[nH]c2=O)cc1,inactive: 1.5%
17,CCc1cccc(-n2c(C)nc3c(cnn3-c3ccc(Cl)cc3)c2=O)c1,inconclusive: -46.7%
18,O=C(/C=C/c1c(Cl)cccc1Cl)NCc1ccco1,inconclusive: -45.4%
19,COc1ccc(NC(C)=O)cc1NC(C)C(=O)Nc1cccc(S(=O)(=O)N2CCOCC2)c1 (configuration not stated),inconclusive: -43.2%
20,O=C(Nc1ccccc1N1CCOCC1)C1(c2ccc(Cl)cc2)CCC1,active: -66%
21,Cc1cn2c(=O)cc(COc3cccc(NC(=O)c4ccccc4C)c3)nc2s1,active: -68.7%
22,O=C1Nc2cccnc2N(C(=O)CCl)c2ccccc21,inconclusive: -59.1%

row,SMILES,"activity change, negative = inhibition"
1,O=C(NCc1ccc(F)cc1)c1ccc2c(Cl)c3c(nc2c1)CCCC3,active: -72.9%
2,COc1cccc(NC(=O)C2C3CCC4C(CCC32)C4(Cl)Cl)c1 (configuration not stated),inconclusive: -41.9%
3,CCOC(=O)N1CCN(C(=O)c2ccccc2NC(=O)c2ccccc2Cl)CC1,inconclusive: -43.1%
4,C[C@H](CO)N1C[C@H](C)[C@@H](CN(C)C(=O)NC2CCCCC2)Oc2c(NC(=O)C3CC3)cccc2C1=O,active: -100%
5,CC1CCN(CC(O)COCCC23CC4CC(CC(C4)C2)C3)CC1 (configuration not stated),active: -74.6%
6,Cc1ccc(N2CC(C(=O)NC3CC3)CC2=O)cc1 (configuration not stated),inactive: 11.9%
7,COCCNC(=O)C1(C)CCN(C(=O)c2cc(-c3cccs3)oc2C)C1 (configuration not stated),inactive: -20.9%
8,CCC(=O)N(CCC(c1ccccc1)c1ccco1)Cc1cccs1 (configuration not stated),inconclusive: -44.9%
9,COc1ccc(S(=O)(=O)N2CCN(C(=O)c3cc(C)on3)CC2)cc1,inactive: -11.6%
10,Cc1coc(C)c1C(=O)CC1(O)C(=O)Nc2cc(Cl)cc(Cl)c21 (configuration not stated),inconclusive: -49.1%
11,Cc1ccc(S(=O)(=O)N2CCN(S(=O)(=O)N(C)C)CC2)c(C)c1,inconclusive: -44.4%
12,O=C1CN(c2nc(-c3cccnc3)nc3sc4c(c23)CCCC4)CCN1,inconclusive: -54.5%
13,COc1ccc(CCNC(=O)CSC(=O)c2ccccc2)cc1OC,active: -60.2%
14,Cn1cc(Cl)c(-c2nc3ccccc3[nH]2)n1,inactive: 161%
15,CCN(CC)c1nn2c(=O)c(C(=O)NCCc3ccccc3)cnc2s1,inactive: 3.6%
16,O=C(NCC(c1cccnc1)N1CCN(c2ccccc2F)CC1)c1cccc(Cl)c1 (configuration not stated),inconclusive: -44.9%
17,CCOC(=O)c1c(-c2ccc(C)cc2)csc1NC(=O)/C(C#N)=C/c1ccc(O)c(OC)c1,inconclusive: -54.7%
18,Cn1c2ccccc2c(=O)c2c(=O)n(Cc3ccco3)c(COc3ccccc3)nc21,active: -81.5%
19,COc1cccc(NC(=O)CN(C)C(=O)CCCc2c[nH]c3ccccc23)c1,inconclusive: -58.1%
20,C=CCNC(=O)C1(S(=O)(=O)c2ccccc2)CC=CC1,inconclusive: -54.3%
21,O=C(NCCCc1ccncc1)C1CCC(=O)N(CCc2cccc(F)c2)C1 (configuration not stated),inconclusive: -54%
22,CCOCCCNC(=O)C1CCN(c2nc3ccc(C)cc3[nH]2)CC1,inactive: 0%

# Ordered by count of non-hydrogen atoms (descending): some entries from above
row,SMILES,"activity change, negative = inhibition"
16,O=C(NCC(c1cccnc1)N1CCN(c2ccccc2F)CC1)c1cccc(Cl)c1 (configuration not stated),inconclusive: -44.9%
10,Cc1coc(C)c1C(=O)CC1(O)C(=O)Nc2cc(Cl)cc(Cl)c21 (configuration not stated),inconclusive: -49.1%
20,C=CCNC(=O)C1(S(=O)(=O)c2ccccc2)CC=CC1,inconclusive: -54.3%

# Following part

row,SMILES,"activity change, negative = inhibition"
1,Cc1ccc(NC(=O)N2CCc3ccccc32)cc1,inactive: 124%
2,Cc1ccc(S(=O)(=O)NCC(=O)N(CC(=O)NCc2ccco2)Cc2ccccc2)cc1,inactive: -9.49%
3,O=C(/C=C/c1ccco1)Nc1ccc(-c2nc3ccccc3[nH]2)cc1,inconclusive: -43.5%
4,CNC(=O)C(=O)Nc1cc2c3c(c1)C(C)C(=O)N3CCC2 (configuration not stated),inactive: -3.66%
5,COc1ccccc1N1CCN(C(=O)C(C)CS(=O)(=O)c2ccc3c(c2)NC(=O)CS3)CC1 (configuration not stated),inactive: -20.3%
6,O=C(CSc1nc2c([nH]c3ccccc32)c(=O)n1-c1ccccc1)Nc1cccc(C(F)(F)F)c1,inconclusive: -52.5%
7,CCC(/C=N/NC(=O)c1ccccc1F)CC,inactive: -14.7%
8,CC(=O)c1ccc(-c2ccc(/C=C(/Sc3n[nH]c(C)n3)C(=O)O)o2)cc1,inconclusive: -45.7%
9,COc1ccc(-c2ncccc2OC(=O)C23CC4CC(CC(C4)C2)C3)cc1OC,inconclusive: -43.5%
10,CCOc1ccc(N(CC(=O)Nc2ccccc2OCC)S(=O)(=O)c2c(C)noc2C)cc1,active: -86.4%
11,O=C(NC1CCCCC1)c1ccc(CSc2nc3ccncc3n2Cc2cccc(F)c2)cc1,inconclusive: -52.3%
12,Cc1ccc(Cl)cc1NC(=O)c1cnn2c1NC(c1ccco1)CC2C(F)(F)F (configuration not stated),inconclusive: -41.6%
13,Cc1ccc(N(C)C(=O)Cn2ncc3c([nH]c4ccccc43)c2=O)cc1C,inactive: 27.2%
14,COC(=O)c1ccc(C(=S)N2CCOCC2)cc1,inconclusive: -50.6%
15,CCn1c(SCC(=O)NNC(=O)c2ccc(OC)cc2)nnc1C1CC1,inactive: 2.76%
16,COc1cc2c(cc1OC)-c1cc3ccc(OC)c(OC)c3c[n+]1CC2,inactive: -25.4%
17,Cc1cc(C)nc(-n2ncc3c2CC(c2ccccc2C)CC3=O)n1 (configuration not stated),inconclusive: -57%
18,NC(=S)N/N=C/c1coc2ccc(Br)cc2c1=O,inconclusive: -51.8%
19,OC(COCCOc1ccc(Br)cc1)CN1CCN(Cc2ccccc2)CC1 (configuration not stated),active: -101%
20,CC(=O)c1cccc(-c2ccnc3c2CC(C(=O)Nc2ccc(Cl)c(C(F)(F)F)c2)O3)c1 (configuration not stated),inactive: -6.74%
21,COc1ccnc(Oc2ccc(F)cc2)c1-c1ncn[nH]1,inconclusive: -51.3%
